Experimental findings from PMC3608585 are described below.

For the test, the target named is T1, Id1 (endogenous, MDA-MB435S and A375P cells) (human (endogenous in MDA-MB435S and A375P)) (UniProt P41134).
T1 sequence: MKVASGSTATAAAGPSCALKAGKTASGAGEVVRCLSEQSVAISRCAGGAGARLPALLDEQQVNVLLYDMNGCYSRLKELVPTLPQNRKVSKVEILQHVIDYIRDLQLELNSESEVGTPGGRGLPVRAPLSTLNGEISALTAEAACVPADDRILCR
The test is described as follows: co-IP; extracts of MDA-MB435S and A375P cells immunoprecipitated with anti-Id1 antibodies or control IgGs, Western blot with anti-Id1 and anti-E2A antibodies.

These are yes or no findings as the source states them, for the method shown. Binding seen in cells or lysates may run through a third protein. Some binding calls cover weakened binding; strength is not graded here.

B1: E47 (endogenous, MDA-MB435S and A375P cells) (protein, UniProt P15923-2 1-651)
chain: MNQPQRMAPVGTDKELSDLLDFSMMFPLPVTNGKGRPASLAGAQFGGSGLEDRPSSGSWGSGDQSSSSFDPSRTFSEGTHFTESHSSLSSSTFLGPGLGGKSGERGAYASFGRDAGVGGLTQAGFLSGELALNSPGPLSPSGMKGTSQYYPSYSGSSRRRAADGSLDTQPKKVRKVPPGLPSSVYPPSSGEDYGRDATAYPSAKTPSSTYPAPFYVADGSLHPSAELWSPPGQAGFGPMLGGGSSPLPLPPGSGPVGSSGSSSTFGGLHQHERMGYQLHGAEVNGGLPSASSFSSAPGATYGGVSSHTPPVSGADSLLGSRGTTAGSSGDALGKALASIYSPDHSSNNFSSSPSTPVGSPQGLAGTSQWPRAGAPGALSPSYDGGLHGLQSKIEDHLDEAIHVLRSHAVGTAGDMHTLLPGHGALASGFTGPMSLGGRHAGLVGGSHPEDGLAGSTSLMHNHAALPSQPGTLPDLSRPPDSYSGLGRAGATAAASEIKREEKEDEENTSAADHSEEEKKELKAPRARTSSTDEVLSLEEKDLRDRERRMANNARERVRVRDINEAFRELGRMCQMHLKSDKAQTKLLILQQAVQVILGLEQQVRERNLNPKAACLKRREEEKVSGVVGDPQMVLSAPHPGLSEAHNPAGHM
Turning to B1, the binding result was “binds”.
